Measurements as given in article PMC5433425 (PeerJ, 2017).
Further values from the same series stand in other lists.

Experiments:
E. coli AG100A = experiment: EtBr efflux by real-time fluorometry; conditions: 20 µM, + glucose
E. coli AG100tet = experiment: EtBr efflux by real-time fluorometry; conditions: 80 µM, + glucose

## CCCOc1ccc(-c2cc(OCCN3CCNCC3)c3ccccc3n2)cc1 [PQQ4R, 4-(2-(piperazin-1-yl)ethoxy)-2-(4-propoxyphenyl) quinolone]
E. coli AG100A; cycle 1
  Fluorescence raw data, Channel Cycling A.530/585hp: 5.606
E. coli AG100A; cycle 2
  Fluorescence raw data, Channel Cycling A.530/585hp: 5.311
E. coli AG100A; cycle 3
  Fluorescence raw data, Channel Cycling A.530/585hp: 5.0425
E. coli AG100A; cycle 4
  Fluorescence raw data, Channel Cycling A.530/585hp: 4.7307
E. coli AG100A; cycle 5
  Fluorescence raw data, Channel Cycling A.530/585hp: 4.679
E. coli AG100A; cycle 6
  Fluorescence raw data, Channel Cycling A.530/585hp: 4.45
E. coli AG100A; cycle 7
  Fluorescence raw data, Channel Cycling A.530/585hp: 4.322
E. coli AG100A; cycle 8
  Fluorescence raw data, Channel Cycling A.530/585hp: 4.281
E. coli AG100A; cycle 9
  Fluorescence raw data, Channel Cycling A.530/585hp: 4.194
E. coli AG100A; cycle 10
  Fluorescence raw data, Channel Cycling A.530/585hp: 4.14
E. coli AG100A; cycle 11
  Fluorescence raw data, Channel Cycling A.530/585hp: 4.111
E. coli AG100A; cycle 12
  Fluorescence raw data, Channel Cycling A.530/585hp: 4.165
E. coli AG100A; cycle 13
  Fluorescence raw data, Channel Cycling A.530/585hp: 4.177
E. coli AG100A; cycle 14
  Fluorescence raw data, Channel Cycling A.530/585hp: 4.086
E. coli AG100A; cycle 15
  Fluorescence raw data, Channel Cycling A.530/585hp: 4.047
E. coli AG100A; cycle 16
  Fluorescence raw data, Channel Cycling A.530/585hp: 4.171
E. coli AG100A; cycle 17
  Fluorescence raw data, Channel Cycling A.530/585hp: 4.122
E. coli AG100A; cycle 18
  Fluorescence raw data, Channel Cycling A.530/585hp: 4.052
E. coli AG100A; cycle 19
  Fluorescence raw data, Channel Cycling A.530/585hp: 4.146
E. coli AG100A; cycle 20
  Fluorescence raw data, Channel Cycling A.530/585hp: 4.0945
E. coli AG100A; cycle 21
  Fluorescence raw data, Channel Cycling A.530/585hp: 4.078
E. coli AG100A; cycle 22
  Fluorescence raw data, Channel Cycling A.530/585hp: 4.068
E. coli AG100A; cycle 23
  Fluorescence raw data, Channel Cycling A.530/585hp: 4.059
E. coli AG100A; cycle 24
  Fluorescence raw data, Channel Cycling A.530/585hp: 4.008
E. coli AG100A; cycle 25
  Fluorescence raw data, Channel Cycling A.530/585hp: 3.945
E. coli AG100A; cycle 26
  Fluorescence raw data, Channel Cycling A.530/585hp: 3.983
E. coli AG100A; cycle 27
  Fluorescence raw data, Channel Cycling A.530/585hp: 3.9596
E. coli AG100A; cycle 28
  Fluorescence raw data, Channel Cycling A.530/585hp: 3.9645
E. coli AG100A; cycle 29
  Fluorescence raw data, Channel Cycling A.530/585hp: 3.95
E. coli AG100A; cycle 30
  Fluorescence raw data, Channel Cycling A.530/585hp: 3.922
E. coli AG100A; cycle 31
  Fluorescence raw data, Channel Cycling A.530/585hp: 3.866
E. coli AG100A; cycle 32
  Fluorescence raw data, Channel Cycling A.530/585hp: 3.901
E. coli AG100A; cycle 33
  Fluorescence raw data, Channel Cycling A.530/585hp: 3.889
E. coli AG100A; cycle 34
  Fluorescence raw data, Channel Cycling A.530/585hp: 3.872
E. coli AG100A; cycle 35
  Fluorescence raw data, Channel Cycling A.530/585hp: 3.819
E. coli AG100A; cycle 36
  Fluorescence raw data, Channel Cycling A.530/585hp: 3.8799
E. coli AG100A; cycle 37
  Fluorescence raw data, Channel Cycling A.530/585hp: 3.7995
E. coli AG100A; cycle 38
  Fluorescence raw data, Channel Cycling A.530/585hp: 3.822
E. coli AG100A; cycle 39
  Fluorescence raw data, Channel Cycling A.530/585hp: 3.833
E. coli AG100A; cycle 40
  Fluorescence raw data, Channel Cycling A.530/585hp: 3.824
E. coli AG100A; cycle 41
  Fluorescence raw data, Channel Cycling A.530/585hp: 3.848
E. coli AG100A; cycle 42
  Fluorescence raw data, Channel Cycling A.530/585hp: 3.911
E. coli AG100A; cycle 43
  Fluorescence raw data, Channel Cycling A.530/585hp: 3.844
E. coli AG100A; cycle 44
  Fluorescence raw data, Channel Cycling A.530/585hp: 3.857
E. coli AG100A; cycle 45
  Fluorescence raw data, Channel Cycling A.530/585hp: 3.887
E. coli AG100A; cycle 46
  Fluorescence raw data, Channel Cycling A.530/585hp: 3.873
E. coli AG100A; cycle 47
  Fluorescence raw data, Channel Cycling A.530/585hp: 3.8177
E. coli AG100A; cycle 48
  Fluorescence raw data, Channel Cycling A.530/585hp: 3.877
E. coli AG100A; cycle 49
  Fluorescence raw data, Channel Cycling A.530/585hp: 3.876
E. coli AG100A; cycle 50
  Fluorescence raw data, Channel Cycling A.530/585hp: 3.822
E. coli AG100A; cycle 51
  Fluorescence raw data, Channel Cycling A.530/585hp: 3.896
E. coli AG100A; cycle 52
  Fluorescence raw data, Channel Cycling A.530/585hp: 3.865
E. coli AG100A; cycle 53
  Fluorescence raw data, Channel Cycling A.530/585hp: 3.909
E. coli AG100A; cycle 54
  Fluorescence raw data, Channel Cycling A.530/585hp: 3.8333
E. coli AG100A; cycle 55
  Fluorescence raw data, Channel Cycling A.530/585hp: 3.815
E. coli AG100A; cycle 56
  Fluorescence raw data, Channel Cycling A.530/585hp: 3.832
E. coli AG100A; cycle 57
  Fluorescence raw data, Channel Cycling A.530/585hp: 3.751
E. coli AG100A; cycle 58
  Fluorescence raw data, Channel Cycling A.530/585hp: 3.746
E. coli AG100A; cycle 59
  Fluorescence raw data, Channel Cycling A.530/585hp: 3.734
E. coli AG100A; cycle 60
  Fluorescence raw data, Channel Cycling A.530/585hp: 3.735
E. coli AG100A; cycle 61
  Fluorescence raw data, Channel Cycling A.530/585hp: 3.678
E. coli AG100tet; cycle 4
  Fluorescence raw data, Channel Cycling A.530/585hp: 3.127
E. coli AG100tet; cycle 5
  Fluorescence raw data, Channel Cycling A.530/585hp: 3.247
E. coli AG100tet; cycle 6
  Fluorescence raw data, Channel Cycling A.530/585hp: 3.276
E. coli AG100tet; cycle 7
  Fluorescence raw data, Channel Cycling A.530/585hp: 3.388
E. coli AG100tet; cycle 8
  Fluorescence raw data, Channel Cycling A.530/585hp: 3.388
E. coli AG100tet; cycle 45
  Fluorescence raw data, Channel Cycling A.530/585hp: 4.986
E. coli AG100tet; cycle 46
  Fluorescence raw data, Channel Cycling A.530/585hp: 4.965
E. coli AG100tet; cycle 47
  Fluorescence raw data, Channel Cycling A.530/585hp: 5.035
E. coli AG100tet; cycle 48
  Fluorescence raw data, Channel Cycling A.530/585hp: 5.079
E. coli AG100tet; cycle 49
  Fluorescence raw data, Channel Cycling A.530/585hp: 4.978
E. coli AG100tet; cycle 50
  Fluorescence raw data, Channel Cycling A.530/585hp: 4.9269
E. coli AG100tet; cycle 51
  Fluorescence raw data, Channel Cycling A.530/585hp: 4.971
E. coli AG100tet; cycle 52
  Fluorescence raw data, Channel Cycling A.530/585hp: 4.9136
E. coli AG100tet; cycle 53
  Fluorescence raw data, Channel Cycling A.530/585hp: 4.918
E. coli AG100tet; cycle 54
  Fluorescence raw data, Channel Cycling A.530/585hp: 4.988
E. coli AG100tet; cycle 55
  Fluorescence raw data, Channel Cycling A.530/585hp: 4.908
E. coli AG100tet; cycle 56
  Fluorescence raw data, Channel Cycling A.530/585hp: 4.756
E. coli AG100tet; cycle 57
  Fluorescence raw data, Channel Cycling A.530/585hp: 4.899
E. coli AG100tet; cycle 58
  Fluorescence raw data, Channel Cycling A.530/585hp: 4.813
E. coli AG100tet; cycle 59
  Fluorescence raw data, Channel Cycling A.530/585hp: 4.85
E. coli AG100tet; cycle 60
  Fluorescence raw data, Channel Cycling A.530/585hp: 4.844
E. coli AG100tet; cycle 61
  Fluorescence raw data, Channel Cycling A.530/585hp: 4.688
